{"source": "PubChem BioAssay AID686937 (Drosophila RNAi Screening Center, 2013)", "purpose": "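Knock-downs that reduce output of a secreted reporter enzyme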 (primary screen)", "cell system": "Drosophila S2 cells expressing secreted horseradish peroxidase", "reagents": "long dsRNA against Drosophila genes", "timing": "about 5.5 days (5 days dsRNA, then 12 h reporter induction)", "conditions": "reporter expression induced after 5 days of dsRNA, read 12 h later; inducer not stated", "measured": "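Chemiluminescent measurement of peroxidase in the medium 12 h after reporter induction, following 5 days of dsRNA, given as a z-score per plate; higher means more secretion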", "direction": "z-score: higher = more reporter secreted into medium", "note": "The deposit covers about 23,000 reagents; below is an unselected part of those that have a named target and a result. 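Reduced-secretion tags in replicate 1 do not always agree with the z-scores; no criterion for assigning the tags was given.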 Further read-outs or replicates are left out here. Reagent sequences are not shown. The record does not give: the amount of reagent."}
{"gene": "CG15725", "DRSC id": "DRSC19691", "z-score, replicate 1": 0.24}
{"gene": "t", "DRSC id": "DRSC17815", "z-score, replicate 1": 0.34}
{"gene": "Usp1", "DRSC id": "DRSC14155", "z-score, replicate 1": 0.52}
{"gene": "Fit1", "DRSC id": "DRSC08450", "z-score, replicate 1": 1.05}
{"gene": "Act88F", "DRSC id": "DRSC14105", "z-score, replicate 1": -0.1}
{"gene": "tfc", "DRSC id": "DRSC07953", "z-score, replicate 1": 0.7}
{"gene": "tfc", "DRSC id": "DRSC07954", "z-score, replicate 1": -0.15}
{"gene": "tfc", "DRSC id": "DRSC08626", "z-score, replicate 1": -0.57}
{"gene": "tfc", "DRSC id": "DRSC21704", "z-score, replicate 1": 1.82}
{"gene": "CSN4", "DRSC id": "DRSC07350", "z-score, replicate 1": -0.28}
{"gene": "peb", "DRSC id": "DRSC18817", "z-score, replicate 1": 0.1}
{"gene": "Dus3", "DRSC id": "DRSC02059", "z-score, replicate 1": 2}
{"gene": "CG13577", "DRSC id": "DRSC04213", "z-score, replicate 1": 0.03}
{"gene": "PGRP-SC1b", "DRSC id": "DRSC07215", "z-score, replicate 1": 0.37}
{"gene": "QC", "DRSC id": "DRSC09736", "z-score, replicate 1": 0.22}
{"gene": "sigmar", "DRSC id": "DRSC04449", "z-score, replicate 1": 0.02}
{"gene": "eEFSec", "DRSC id": "DRSC04571", "z-score, replicate 1": 0.24}
{"gene": "Cth", "DRSC id": "DRSC07422", "z-score, replicate 1": -0.1}
{"gene": "DCP2", "DRSC id": "DRSC09399", "z-score, replicate 1": 0.22}
{"gene": "DCP2", "DRSC id": "DRSC10597", "z-score, replicate 1": -0.15}
{"gene": "CG18577", "DRSC id": "DRSC15352", "z-score, replicate 1": 0.25}
{"gene": "Mos", "DRSC id": "DRSC07258", "z-score, replicate 1": 0.35}
{"gene": "Tbh", "DRSC id": "DRSC18723", "z-score, replicate 1": 0.35}
{"gene": "CG17267", "DRSC id": "DRSC15207", "z-score, replicate 1": 0.09}
{"gene": "CG15601", "DRSC id": "DRSC19670", "z-score, replicate 1": 0.19}
{"gene": "Lcp3", "DRSC id": "DRSC07457", "z-score, replicate 1": 0.24}
{"gene": "CG12590", "DRSC id": "DRSC12216", "z-score, replicate 1": 0.48}
{"gene": "Spn28Dc", "DRSC id": "DRSC03029", "z-score, replicate 1": -0.02}
{"gene": "DIP-gamma", "DRSC id": "DRSC14873", "z-score, replicate 1": 0.39}
{"gene": "CG5003", "DRSC id": "DRSC15694", "z-score, replicate 1": 0.56}
{"gene": "CG1941", "DRSC id": "DRSC06802", "z-score, replicate 1": 0.09}
{"gene": "IFT43", "DRSC id": "DRSC02892", "z-score, replicate 1": 0.34}
{"gene": "LS2", "DRSC id": "DRSC04340", "z-score, replicate 1": 0.62}
{"gene": "Gprk2", "DRSC id": "DRSC16682", "z-score, replicate 1": 0.26}
{"gene": "CG13847", "DRSC id": "DRSC14697", "z-score, replicate 1": -0.02}
{"gene": "Nep5", "DRSC id": "DRSC16004", "z-score, replicate 1": 0.3}
{"gene": "Rtnl2", "DRSC id": "DRSC12609", "z-score, replicate 1": 0.23}
{"gene": "Rtnl2", "DRSC id": "DRSC21655", "z-score, replicate 1": -0.39}
{"gene": "CG13609", "DRSC id": "DRSC14612", "z-score, replicate 1": 0.35}
{"gene": "CG13609", "DRSC id": "DRSC22843", "z-score, replicate 1": 0.5}
{"gene": "Klc", "DRSC id": "DRSC11203", "z-score, replicate 1": 0.12}
{"gene": "Kdm3", "DRSC id": "DRSC16393", "z-score, replicate 1": 0.1}
{"gene": "CG32833", "DRSC id": "DRSC04596", "z-score, replicate 1": 0.2}
{"gene": "CG6790", "DRSC id": "DRSC16117", "z-score, replicate 1": 0.42}
{"gene": "anne", "DRSC id": "DRSC17103", "z-score, replicate 1": -3.23}
{"gene": "CG3744", "DRSC id": "DRSC15511", "z-score, replicate 1": 0.44}
{"gene": "CG12003", "DRSC id": "DRSC08214", "z-score, replicate 1": 0.72}
{"gene": "CalpA", "DRSC id": "DRSC07352", "z-score, replicate 1": 0.39}
{"gene": "elfless", "DRSC id": "DRSC02451", "z-score, replicate 1": 0.37}
{"gene": "l(2)03659", "DRSC id": "DRSC07269", "z-score, replicate 1": 0.27}
{"gene": "l(2)03659", "DRSC id": "DRSC07638", "z-score, replicate 1": 0.37}
